In paper PMC4719423:
These are yes or no findings as the source states them, for the method shown. In cells and extracts the contact can be indirect. Some entries that bind do so weakly or less than the wild type.

By UniProt entry, the sequences of proteins in these tests, tags left out. Where a name states a change or a piece, a line headed by the entry shows the natural chain unless it says otherwise.
UniProt P70288: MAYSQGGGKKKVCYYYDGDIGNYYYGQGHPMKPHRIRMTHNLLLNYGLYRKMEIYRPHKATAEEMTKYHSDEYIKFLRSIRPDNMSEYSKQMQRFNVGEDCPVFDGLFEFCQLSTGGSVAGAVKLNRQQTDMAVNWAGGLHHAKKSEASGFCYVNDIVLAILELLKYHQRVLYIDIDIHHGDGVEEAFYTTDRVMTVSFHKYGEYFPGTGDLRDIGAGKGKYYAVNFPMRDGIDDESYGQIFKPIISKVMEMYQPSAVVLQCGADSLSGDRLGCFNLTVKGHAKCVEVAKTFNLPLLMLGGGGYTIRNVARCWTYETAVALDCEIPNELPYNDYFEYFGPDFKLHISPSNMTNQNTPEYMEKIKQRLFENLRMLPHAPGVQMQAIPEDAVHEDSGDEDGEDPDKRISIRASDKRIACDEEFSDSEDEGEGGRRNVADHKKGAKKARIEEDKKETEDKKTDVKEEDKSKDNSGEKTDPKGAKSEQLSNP
UniProt Q8CFE3: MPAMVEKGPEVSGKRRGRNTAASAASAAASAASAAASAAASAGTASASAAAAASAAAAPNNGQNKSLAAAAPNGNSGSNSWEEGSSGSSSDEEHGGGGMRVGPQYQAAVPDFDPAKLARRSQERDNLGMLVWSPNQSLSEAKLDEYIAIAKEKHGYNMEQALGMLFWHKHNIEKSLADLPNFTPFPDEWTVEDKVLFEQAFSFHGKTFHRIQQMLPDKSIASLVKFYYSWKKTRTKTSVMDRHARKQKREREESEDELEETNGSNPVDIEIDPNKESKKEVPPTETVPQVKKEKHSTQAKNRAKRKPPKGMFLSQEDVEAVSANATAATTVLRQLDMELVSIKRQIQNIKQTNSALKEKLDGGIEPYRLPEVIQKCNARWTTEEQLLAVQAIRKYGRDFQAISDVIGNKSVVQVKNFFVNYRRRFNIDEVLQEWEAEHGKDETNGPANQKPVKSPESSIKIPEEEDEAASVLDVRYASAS
UniProt Q8K4B0: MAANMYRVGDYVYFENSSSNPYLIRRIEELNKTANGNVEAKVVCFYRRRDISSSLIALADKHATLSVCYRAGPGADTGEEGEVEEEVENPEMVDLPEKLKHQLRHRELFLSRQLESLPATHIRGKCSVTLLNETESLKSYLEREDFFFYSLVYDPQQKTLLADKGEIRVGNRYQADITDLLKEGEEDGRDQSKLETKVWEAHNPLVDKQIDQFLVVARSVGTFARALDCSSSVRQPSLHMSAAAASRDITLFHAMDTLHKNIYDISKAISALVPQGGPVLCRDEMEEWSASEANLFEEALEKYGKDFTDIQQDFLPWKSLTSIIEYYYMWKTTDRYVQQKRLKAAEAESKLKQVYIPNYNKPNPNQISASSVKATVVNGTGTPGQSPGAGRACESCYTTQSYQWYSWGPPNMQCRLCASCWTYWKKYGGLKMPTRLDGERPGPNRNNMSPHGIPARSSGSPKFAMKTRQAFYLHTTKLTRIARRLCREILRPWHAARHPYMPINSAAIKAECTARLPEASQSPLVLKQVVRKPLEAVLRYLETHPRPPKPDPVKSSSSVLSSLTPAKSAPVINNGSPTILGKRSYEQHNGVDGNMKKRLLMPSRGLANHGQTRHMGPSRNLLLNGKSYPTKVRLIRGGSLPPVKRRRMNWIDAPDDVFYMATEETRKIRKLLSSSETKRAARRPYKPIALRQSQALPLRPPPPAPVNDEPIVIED
UniProt O09106: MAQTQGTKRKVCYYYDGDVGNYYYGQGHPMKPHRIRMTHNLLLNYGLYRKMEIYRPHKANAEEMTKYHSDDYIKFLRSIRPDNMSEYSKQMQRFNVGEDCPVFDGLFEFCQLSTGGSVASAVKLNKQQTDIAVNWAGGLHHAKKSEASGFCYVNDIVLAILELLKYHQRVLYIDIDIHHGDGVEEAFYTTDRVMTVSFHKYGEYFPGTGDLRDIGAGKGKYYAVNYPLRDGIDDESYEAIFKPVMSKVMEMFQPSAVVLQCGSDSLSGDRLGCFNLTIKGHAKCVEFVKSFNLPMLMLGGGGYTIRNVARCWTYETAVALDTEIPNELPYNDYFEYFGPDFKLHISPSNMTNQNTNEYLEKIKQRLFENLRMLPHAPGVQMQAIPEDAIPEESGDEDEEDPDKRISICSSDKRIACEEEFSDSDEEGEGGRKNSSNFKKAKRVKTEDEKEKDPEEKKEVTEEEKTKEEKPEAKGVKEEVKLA

Assays:
Experiment in all cases: co-IP; P0 mouse brain protein extracts (Hdac2 KI/+, Hdac2 +/- and wild-type littermates) in Hunt buffer (20 mM Tris-HCl pH 8.0, 100 mM NaCl, 1 mM EDTA, 0.5% NP-40); 1 mg protein with 4 ug antibody 1 h at 4°C, protein A or G Dynabeads overnight at 4°C, three washes with Hunt buffer; immunoblot
[1] = biological target: histone deacetylase 2 (wild-type HDAC2) (mouse (endogenous in brain)) (UniProt P70288)
[2] = biological target: CoREST (mouse (endogenous in brain)) (UniProt Q8CFE3)
[3] = biological target: MTA1 (NuRD) (mouse (endogenous in brain)) (UniProt Q8K4B0)
[4] = biological target: T1, Sin3A (mouse (endogenous in brain)) (UniProt Q60520)
T1 sequence: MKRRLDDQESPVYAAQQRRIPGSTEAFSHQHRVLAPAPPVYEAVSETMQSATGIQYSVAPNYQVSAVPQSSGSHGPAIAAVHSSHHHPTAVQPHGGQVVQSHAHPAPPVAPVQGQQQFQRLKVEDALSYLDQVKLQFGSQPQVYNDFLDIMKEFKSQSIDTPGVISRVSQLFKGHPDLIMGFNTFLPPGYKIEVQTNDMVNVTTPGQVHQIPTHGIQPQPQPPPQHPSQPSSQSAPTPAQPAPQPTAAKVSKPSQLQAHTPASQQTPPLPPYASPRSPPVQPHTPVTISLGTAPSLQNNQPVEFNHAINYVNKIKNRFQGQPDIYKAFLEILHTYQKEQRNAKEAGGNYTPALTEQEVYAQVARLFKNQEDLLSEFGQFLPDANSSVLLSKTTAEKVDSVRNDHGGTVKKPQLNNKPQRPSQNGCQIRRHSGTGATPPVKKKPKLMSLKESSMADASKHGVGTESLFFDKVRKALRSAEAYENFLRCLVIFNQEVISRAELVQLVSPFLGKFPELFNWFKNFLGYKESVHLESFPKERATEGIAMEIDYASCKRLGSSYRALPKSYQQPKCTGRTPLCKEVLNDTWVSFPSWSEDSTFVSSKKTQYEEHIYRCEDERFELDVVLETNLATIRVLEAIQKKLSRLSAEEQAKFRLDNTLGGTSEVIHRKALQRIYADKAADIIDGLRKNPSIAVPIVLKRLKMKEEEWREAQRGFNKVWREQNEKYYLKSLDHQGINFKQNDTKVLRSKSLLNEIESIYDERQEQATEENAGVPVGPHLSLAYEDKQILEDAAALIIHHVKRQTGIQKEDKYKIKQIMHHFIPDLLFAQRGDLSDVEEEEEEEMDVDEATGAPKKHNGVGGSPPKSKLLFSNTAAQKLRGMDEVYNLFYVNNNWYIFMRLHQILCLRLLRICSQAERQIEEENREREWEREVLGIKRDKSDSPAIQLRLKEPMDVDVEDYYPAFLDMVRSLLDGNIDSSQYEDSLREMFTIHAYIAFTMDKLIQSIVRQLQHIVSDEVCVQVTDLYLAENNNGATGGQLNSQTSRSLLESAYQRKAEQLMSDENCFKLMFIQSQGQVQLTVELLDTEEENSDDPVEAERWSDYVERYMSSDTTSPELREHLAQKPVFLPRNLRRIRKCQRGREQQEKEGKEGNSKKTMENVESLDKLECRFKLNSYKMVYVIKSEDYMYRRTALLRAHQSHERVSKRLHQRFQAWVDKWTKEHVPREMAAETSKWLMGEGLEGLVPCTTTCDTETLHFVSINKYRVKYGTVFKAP

| binding [1] | binding [2] | binding [3] | binding [4] | Substance |
| --- | --- | --- | --- | --- |
| binds | – | – | – | histone deacetylase 1 (HDAC1) (from UniProt O09106 1-482) (enzyme) |
| – | binds | binds | binds | catalytically inactive HDAC2-H142A (from UniProt P70288 1-488) (enzyme) |
| – | binds | binds | binds | histone deacetylase 2 (wild-type HDAC2) (from UniProt P70288 1-488) (enzyme) |
